The record followed here is publication PMC10157740.

Protein sequences, listed by entry. Tags and fused reporters are not part of them. Lines headed by an entry give the natural chain unless they say otherwise; changes in a name come on top. Residues count along the entry.
UniProt Q8CFI0: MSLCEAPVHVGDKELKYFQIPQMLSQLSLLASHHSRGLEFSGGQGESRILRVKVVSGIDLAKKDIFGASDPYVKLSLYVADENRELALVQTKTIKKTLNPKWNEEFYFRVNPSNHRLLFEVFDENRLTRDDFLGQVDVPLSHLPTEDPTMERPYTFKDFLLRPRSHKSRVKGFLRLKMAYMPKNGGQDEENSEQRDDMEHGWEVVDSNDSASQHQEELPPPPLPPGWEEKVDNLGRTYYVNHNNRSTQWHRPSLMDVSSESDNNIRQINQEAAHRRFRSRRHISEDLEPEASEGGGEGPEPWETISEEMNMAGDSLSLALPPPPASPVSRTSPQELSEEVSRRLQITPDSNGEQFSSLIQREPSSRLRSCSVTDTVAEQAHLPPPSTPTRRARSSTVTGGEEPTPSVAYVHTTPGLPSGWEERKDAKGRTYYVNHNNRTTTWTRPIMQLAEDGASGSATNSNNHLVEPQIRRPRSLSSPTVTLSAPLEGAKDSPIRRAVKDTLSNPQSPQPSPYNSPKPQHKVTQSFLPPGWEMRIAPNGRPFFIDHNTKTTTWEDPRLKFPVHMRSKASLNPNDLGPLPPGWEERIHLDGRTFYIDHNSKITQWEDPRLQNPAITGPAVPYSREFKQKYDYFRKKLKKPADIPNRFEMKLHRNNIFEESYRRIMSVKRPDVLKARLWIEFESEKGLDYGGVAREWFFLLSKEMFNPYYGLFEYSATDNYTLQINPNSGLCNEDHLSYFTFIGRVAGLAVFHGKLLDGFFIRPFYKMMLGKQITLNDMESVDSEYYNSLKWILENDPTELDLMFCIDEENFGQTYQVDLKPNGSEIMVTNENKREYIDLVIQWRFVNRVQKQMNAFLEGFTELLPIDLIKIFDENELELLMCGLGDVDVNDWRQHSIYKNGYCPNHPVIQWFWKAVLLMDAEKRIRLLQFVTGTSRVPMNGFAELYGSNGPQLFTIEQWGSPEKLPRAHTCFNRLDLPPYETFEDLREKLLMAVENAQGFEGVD
UniProt P35639: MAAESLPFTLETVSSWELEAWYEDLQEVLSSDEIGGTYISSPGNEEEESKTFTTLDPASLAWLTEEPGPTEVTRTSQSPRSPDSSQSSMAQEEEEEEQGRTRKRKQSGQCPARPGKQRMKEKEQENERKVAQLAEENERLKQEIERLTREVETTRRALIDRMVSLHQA
CHOP ΔN36 truncation (lacking the first 36 amino acids, α-helix domain deletion): residues 37-168 of P35639

Results are given in words; binding and its absence hold for the method and conditions named. Binding seen in cells or lysates may run through a third protein. Some entries that bind do so weakly or less than the wild type.

The target in assay [1] is Nedd4 like E3 ubiquitin protein ligase (NEDD4L), endogenous in Hepa1-6 cells (mouse (endogenous in Hepa1-6)) (UniProt Q8CFI0). The assay can be described thus: co-IP; Hepa1-6 cells transfected to overexpress Txnip for 24 h, then 5 μM MG132 for 4 h; lysates immunoprecipitated with NEDD4L antibody or control IgG, immunoblot. In general terms: In western blotting, separated proteins are transferred to a membrane and probed.

Assay [2] has as its target CCAAT/enhancer-binding protein homologous protein (CHOP), wild type, overexpressed from plasmid Chop-6x his (mouse) (UniProt P35639). The assay can be described thus: co-IP; Hepa1-6 cells transfected with Txnip and Chop constructs (wild type or truncations; 5 μM MG132 for 4 h in Figure 6B); lysates immunoprecipitated with CHOP antibody or control IgG, blot with anti-TXNIP, anti-V5 or anti-CHOP.

Assay [3] has as its target CHOP ΔN36 truncation (lacking the first 36 amino acids, α-helix domain deletion) (mouse) (UniProt P35639). The assay is described as above.
For assay [4], the target named is CHOP, endogenous in GAN diet NASH mouse liver (mouse (endogenous in liver)) (UniProt P35639). The experiment in a line: co-IP; GAN diet NASH mouse liver, endogenous proteins; precipitating antibody not stated.

B1: Thioredoxin interacting protein (TXNIP), wild type, overexpressed from plasmid Txnip (protein, UniProt Q8BG60 1-397)
chain: MVMFKKIKSFEVVFNDPEKVYGSGEKVAGRVIVEVCEVTRVKAVRILACGVAKVLWMQGSQQCKQTLDYLRYEDTLLLEEQPTAGENEMVIMRPGNKYEYKFGFELPQGPLGTSFKGKYGCVDYWVKAFLDRPSQPTQEAKKNFEVMDLVDVNTPDLMAPVSAKKEKKVSCMFIPDGRVSVSARIDRKGFCEGDDISIHADFENTCSRIVVPKAAIVARHTYLANGQTKVFTQKLSSVRGNHIISGTCASWRGKSLRVQKIRPSILGCNILKVEYSLLIYVSVPGSKKVILDLPLVIGSRSGLSSRTSSMASRTSSEMSWIDLNIPDTPEAPPCYMDIIPEDHRLESPTTPLLDDVDDSQDSPIFMYAPEFQFMPPPTYTEVDPCVLNNNNNNNNVQ
For B1, the binding entry in assay [1] was “binds”; in assay [2], “binds”; in assay [3], “no binding”.

B2: TXNIP, endogenous in GAN diet NASH mouse liver (protein, UniProt Q8BG60 1-397)
chain: B1 chain
As to B2, the binding result in assay [4] was “binds”.
